From patent US20250230242A1, “PHARMACEUTICAL COMPOSITION OF ANTI-TIM-3 ANTIBODY AND HYPOMETHYLATING AGENT” (NANJING SHUNXIN PHARMACEUTICALS CO., LTD. OF CHIATAI …, priority 2022, published 2025)
These are yes or no findings as the source states them, for the method shown. Some entries that bind do so weakly or less than the wild type.

Molecular target: cynomolgus monkey TIM-3 recombinant protein (Acro) (cynomolgus monkey)
Assay: ELISA on recombinant protein

- binding: binds
B1: humanized anti-TIM-3 antibody h50B5 (antibody, human IgG4 S228P, kappa, V domains shown)
VH: QVQLVQSGAEVKKPGASVKVSCKASGYSFTGYTINWVRQAPGQGLEWMGLFNPYNGGTTYAQKFQGRVTMTVDKSTSTVYMELSSLRSEDTAVYYCARRYYGYDAMDYWGQGTLVTVSS
VL: DIQMTQSPSSLSASVGDRVTITCKSSQSVLYSSNQKNHLAWYQQKPGKAPKLLIYWASTRESGVPSRFSGSGSGTDFTLTISSLQPEDFATYYCHQYLSSYTFGQGTKLEIKR
notes: Humanized from mouse mAb 50B5 by CDR grafting; human IgG4 heavy chain constant region and human light chain constant region
